Source: paper PMC10448641 (ACS Omega, 2023)

Tested on: A549 cells
Assay: MTT cytotoxicity assay, lung cancer A549
Type: cell-based
Details: Homo sapiens, A549, read-out: IC50 ± SD, Lung cancer (A549)

COc1cccc2c1C(=O)c1c(O)c3c(c(O)c1C2=O)C[C@@](O)(C(=O)CO)C[C@@H]3O[C@H]1C[C@H](N)[C@H](O)[C@H](C)O1 [Doxorubicin]
IC50: 9.44 ± 0.64 µM
